According to publication PMC12216130, “Structural basis for the interaction between the bacterial cell division proteins FtsZ and ZapA” (Nature Communications, 2025):
These are yes or no findings as the source states them, for the method shown. Some entries that bind do so weakly or less than the wild type.

Sequences of proteins named here, by UniProt entry; tags and fusion partners are left off.
UniProt W9BCK7: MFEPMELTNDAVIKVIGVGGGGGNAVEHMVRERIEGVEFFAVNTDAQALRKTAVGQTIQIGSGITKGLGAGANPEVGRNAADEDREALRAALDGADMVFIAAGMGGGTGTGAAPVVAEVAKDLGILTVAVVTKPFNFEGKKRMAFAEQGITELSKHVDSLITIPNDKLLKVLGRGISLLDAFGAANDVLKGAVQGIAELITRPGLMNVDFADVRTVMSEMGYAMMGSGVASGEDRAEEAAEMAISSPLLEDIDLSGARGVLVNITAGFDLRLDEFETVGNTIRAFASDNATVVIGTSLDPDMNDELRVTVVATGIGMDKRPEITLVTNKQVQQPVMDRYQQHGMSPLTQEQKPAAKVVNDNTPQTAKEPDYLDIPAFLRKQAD

How the values were obtained:
[1] = target: K. pneumoniae FtsZ (K. pneumoniae) (UniProt W9BCK7); experiment: negative staining electron microscopy; purified ZapA-FtsZ complex at 1.0 mg/ml on carbon grids, 2% uranyl acetate; both purified
[2] = target: K. pneumoniae ZapA (K. pneumoniae) (UniProt A6TDS2); experiment: crystal structure; KpZapA alone, 10 mg/ml, hanging drop, 293 K, 0.2 M sodium acetate, 0.1 M sodium citrate pH 5.5, 10% PEG4000; 1.8 A; both purified
[3] = target: K. pneumoniae FtsZ (K. pneumoniae) (UniProt W9BCK7); experiment: cryo-EM structure; 7.4 uM KpFtsZ, 14.9 uM KpZapA (2x molar excess), 0.6 mM GMPCPP, 17 mM HEPES pH 7.5, 8.6 mM NaCl, 60 mM KCl, 3 mM MgCl2, on ice 15 min; helical refinement to 2.73 A; same data re-analysed with the focus on ZapA (3.89 and 4.27 A maps, 2D classes); both purified
[4] = target: K. pneumoniae FtsZ (K. pneumoniae) (UniProt W9BCK7); experiment: high-speed atomic force microscopy (HS-AFM); pre-mixing method: 14 uM KpFtsZ, 36 uM KpZapA, 1 mM GTP in 20 mM HEPES-NaOH pH 7.5, 5 mM MgCl2, 100 mM KCl, mixed, then adsorbed onto mica; room temperature; both purified

Measured: binding

B1: K. pneumoniae ZapA (natural protein)
chain: MSAQPVDLQIFGRSLRVNCPPEQRDALNQAAEDLNQRLQDLKERTRVTNTEQLVFIAALNISYELTQEKAKTRDYASSMEQRIRMLQQTIEQALLEQGRISE
notes: ZapA of Klebsiella pneumoniae; synthetic gene codon-optimised for E. coli in pColdI-TEV; Tetramer in the structures; also called KpZapA; source: E. coli, purified (HisTrap, TEV cleavage, second HisTrap, Superdex200 SEC); not shown: His6, N-terminal, cleaved
binds: all assays above
